Measurements taken from PMC9358472.
No constants are given. Whether binding was seen depends on the method and setting. Binding seen in cells or lysates may run through a third protein. Some results given as binding are weak or reduced against the parent protein; the word gives no strength.

Amino acid sequences for entries named in this document (tags omitted).
UniProt P23787: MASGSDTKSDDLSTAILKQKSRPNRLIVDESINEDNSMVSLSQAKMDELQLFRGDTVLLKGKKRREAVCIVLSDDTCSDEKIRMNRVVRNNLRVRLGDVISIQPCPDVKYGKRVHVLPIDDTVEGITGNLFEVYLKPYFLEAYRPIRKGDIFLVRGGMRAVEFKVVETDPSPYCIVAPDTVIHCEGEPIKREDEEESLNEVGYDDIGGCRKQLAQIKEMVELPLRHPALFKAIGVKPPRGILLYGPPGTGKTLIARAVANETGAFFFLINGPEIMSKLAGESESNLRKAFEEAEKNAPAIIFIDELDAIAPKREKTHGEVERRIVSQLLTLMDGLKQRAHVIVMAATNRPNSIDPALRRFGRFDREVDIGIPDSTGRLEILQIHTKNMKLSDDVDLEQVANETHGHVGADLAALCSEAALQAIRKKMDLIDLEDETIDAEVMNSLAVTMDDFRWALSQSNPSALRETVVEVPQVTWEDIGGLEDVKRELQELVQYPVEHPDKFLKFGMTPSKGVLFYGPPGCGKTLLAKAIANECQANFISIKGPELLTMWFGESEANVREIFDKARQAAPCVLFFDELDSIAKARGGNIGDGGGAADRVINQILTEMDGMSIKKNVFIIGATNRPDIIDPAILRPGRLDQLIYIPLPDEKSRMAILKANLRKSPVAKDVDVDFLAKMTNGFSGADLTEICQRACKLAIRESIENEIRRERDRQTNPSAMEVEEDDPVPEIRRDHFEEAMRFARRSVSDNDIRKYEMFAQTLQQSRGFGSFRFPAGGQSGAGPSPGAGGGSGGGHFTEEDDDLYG
UniProt Q9YHZ6: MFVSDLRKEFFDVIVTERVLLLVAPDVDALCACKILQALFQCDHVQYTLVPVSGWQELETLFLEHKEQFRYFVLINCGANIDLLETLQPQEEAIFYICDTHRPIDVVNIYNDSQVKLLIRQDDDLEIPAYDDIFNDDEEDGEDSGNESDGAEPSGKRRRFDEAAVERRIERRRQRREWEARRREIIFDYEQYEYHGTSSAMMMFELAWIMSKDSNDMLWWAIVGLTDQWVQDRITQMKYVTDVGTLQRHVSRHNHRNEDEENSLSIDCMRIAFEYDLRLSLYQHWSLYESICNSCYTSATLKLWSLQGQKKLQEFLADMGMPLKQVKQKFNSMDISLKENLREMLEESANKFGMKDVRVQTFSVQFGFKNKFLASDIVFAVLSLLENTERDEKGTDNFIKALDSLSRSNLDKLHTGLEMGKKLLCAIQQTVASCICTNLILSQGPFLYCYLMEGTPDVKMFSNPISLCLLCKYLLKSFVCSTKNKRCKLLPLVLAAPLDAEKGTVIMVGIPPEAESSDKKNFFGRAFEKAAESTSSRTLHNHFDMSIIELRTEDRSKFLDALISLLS

Target: p97 segregase (X. laevis (endogenous in egg extract)) (UniProt P23787)
Assay: co-IP; p97, Cul2 or Ubxn7 immunoprecipitated from late S-phase chromatin of egg extract treated with p97i (NMS873); complexes released by Benzonase; ANIB100 buffer, 4 °C; Western blotting

- binding: binds weakly
Substance: Cdc45 (from UniProt Q9YHZ6 1-567)
